Experimental data published in PubChem BioAssay AID624297 (National Center for Advancing Translational Sciences (NCATS), 2012).
Out of some 340,000 compounds screened, about 6,200 (1.8%) were called active. This list was built around the results that the source calls inconclusive (neither active nor inactive); the mix of calls is not that of the screen. The call rests on the fitted dose curve; in most records, active means well fitted activation curve with a large enough effect; inconclusive means small, poorly fitted or top-dose-only effect; inactive means no such curve, though single readings can be large or run the other way. A potency beside an inconclusive call is a rough fit, not a confirmed value.

Test: A quantitative high throughput screen for small molecules that induce DNA re-replication in SW480 colon adenocarcinoma cells. Further: nearly all actives have a fitted effect of over 55% in size. On re-replication activation: % of control where 0% means no effect.
Details: Hoechst DNA content imaging, 48 h; re-replication activation: at 46.1 µM (top of the series) unless noted
Procedure, shortened: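 Compounds, transferred as 23 nL by pin tool, were incubated with cells for 48 hr; DNA content per nucleus was then quantified by Hoechst staining and fluorescence plate imaging.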
Potency means the concentration at half of the fitted maximal effect.

SMILES	Potency	re-replication activation
O=C(NCc1cccc(Cl)c1)c1ccc(-c2csnn2)cc1	inconclusive: 16.4 µM [activator, partial curve, poor fit]	
C/C(=N\NC(=S)Nc1ccccc1C)c1ccc(O)cc1	inactive	
Cc1cc(=O)oc2c3c(cc(OCC(=O)NCc4ccco4)c12)OC(C)(C)CC3	inconclusive: 0.92 µM [activator, full curve, poor fit]	
Cc1cc(N2CCN(C(=O)/C=C/C(=O)O)CC2)c2ccccc2n1		inconclusive: -42.1% [activator]
O=S(=O)(NC1CC1)c1ccc(S(=O)(=O)N2CCCC3(CCCCC3)C2)cc1	inconclusive: 7.31 µM [activator, partial curve]	
COc1ccccc1N1CCN(C(=O)C2CCCN(S(=O)(=O)c3ccc4c(c3)CCCN4C(C)=O)C2)CC1 (centres undefined)	inconclusive: 23.1 µM [activator, partial curve, poor fit]	
O=C(c1ccc2ccccc2c1)N1CCCC1	inactive	
CC1CCN(C(c2nnnn2CCc2ccccc2)C(C)C)CC1 (centres undefined)	inconclusive: 20.6 µM [activator, single point]	
Brc1ccccc1-n1nnc(-c2ccnc3ccccc23)n1	inconclusive: 18.4 µM [activator, partial curve, poor fit]	
COc1ccc(NC(=O)/C(Cl)=C(/Cl)S(=O)(=O)Cc2ccc(C)cc2)cn1	active: 2.59 µM	
COc1cc(/C=C2\C(=N)N3N=C(C(C)C)SC3=NC2=O)ccc1OCCOc1ccc(NC(C)=O)cc1	inconclusive: 0.116 µM [activator, full curve, poor fit]	
c1ccc(-n2cc(CNCCc3cscn3)c(-c3ccc4c(c3)OCO4)n2)cc1	inconclusive: 29.1 µM [activator, single point]	
O=C(CC1C(=O)NCCN1CC1CCCCC1)NCCc1ccc(F)cc1 (centres undefined)	inconclusive: 14.6 µM [activator, partial curve, poor fit]	
O=C(Cn1c2ccc(F)cc2c2nc3n(c(=O)c21)CCS3)Nc1ccc(Cl)cc1F	inconclusive: 29.1 µM [activator, single point]	
Cc1ccc2nc(-c3ccc(NC(=S)NCCC(C)C)cc3)sc2c1	inconclusive: 29.1 µM [activator, partial curve, poor fit]	
O=C(NCc1ccco1)C1CCN(C(=O)c2cc3sccc3n2Cc2ccc(Cl)cc2)CC1	inconclusive: 20.6 µM [activator, single point]	
CCc1cccc(NC(=O)COC(=O)c2cc([N+](=O)[O-])ccc2N2CCOCC2)c1	inconclusive: 29.1 µM [activator, partial curve, poor fit]	
COc1cnc(SCc2c(Cl)cccc2Cl)nc1Cl	inconclusive: 32.6 µM [activator, partial curve, poor fit]	
COc1ccc(OC)c(-n2c(-c3cccc(O)c3)n[nH]c2=S)c1	inactive	
O=C(NNC(=O)c1cccs1)c1ccc(F)cc1	inactive	
CC1CCN(CC(=O)Nc2ccccc2Sc2ccccc2)CC1	inconclusive: 20.6 µM [activator, single point]	
COC(=O)c1ccc(N2CCN(c3ccccc3)CC2)c(N)c1	inactive	
O=C(Nc1ccccc1)Nc1cccc(C(F)(F)F)c1	inactive	

Among those listed so far, these contain two or more sulfur atoms.
SMILES	Potency	re-replication activation
O=S(=O)(NC1CC1)c1ccc(S(=O)(=O)N2CCCC3(CCCCC3)C2)cc1	inconclusive: 7.31 µM [activator, partial curve]	
Cc1ccc2nc(-c3ccc(NC(=S)NCCC(C)C)cc3)sc2c1	inconclusive: 29.1 µM [activator, partial curve, poor fit]	

(continued)

SMILES	Potency	re-replication activation
O=C(Nc1ccc2c(c1)CCCN2C(=O)c1ccco1)c1cc([N+](=O)[O-])ccc1Cl	inconclusive: 25.9 µM [activator, single point]	
COCCn1c(=NC(=O)c2cc(Cl)sc2Cl)sc2cc(S(N)(=O)=O)ccc21	inconclusive: 23.1 µM [activator, single point]	
O=C(/C=C/c1ccc2c(c1)OCCO2)N1CCN(c2ccc(F)cc2)CC1	inactive	
Cc1cccc(N(C(=O)c2nsc(Cl)c2Cl)C(C(=O)NC2CCCC2)c2ccc(O)cc2)c1C (centres undefined)	inconclusive: 18.4 µM [activator, single point]	
CN(C)CCNC(=O)/C=C/c1cn(-c2ccccc2)nc1-c1cc2ccccc2oc1=O	inconclusive: 18.4 µM [activator, single point]	
Cc1ccc(-c2noc(CCCC(=O)NC3CCCCC3)n2)cc1	inactive	
O=C(COC(=O)C1CCN(S(=O)(=O)c2ccccc2C(F)(F)F)CC1)NCc1ccc(F)cc1	inactive	
O=C(c1cccc(S(=O)(=O)N2CCc3ccccc32)c1)N1CCN(c2ccccn2)CC1	inactive	
CCCC(C(=O)NC1CCCC1)N(CC1CCCO1)C(=O)c1snc(C(N)=O)c1N (centres undefined)	inactive	
Cc1cc(C(=O)Nc2sc3c(c2C#N)CCC(C)C3)cs1 (centres undefined)	inconclusive: 20.6 µM [activator, single point]	
COc1cccc(OC)c1C(=O)Oc1ccc2c(c1)O/C(=C\c1ccncc1)C2=O	inconclusive: 0.103 µM [activator, full curve, poor fit]	
O=C(Nc1ccc(Cl)c(Cl)c1)Nc1nccs1	active: 2.31 µM	
O=C(Nc1ccc(NC(=S)NC(=O)C(c2ccccc2)c2ccccc2)cc1)c1ccccc1	inconclusive: 23.1 µM [activator, single point]	
O=C(CCC(=O)OCC(=O)c1ccc([N+](=O)[O-])cc1)Nc1ccccc1Cl	inconclusive: 29.1 µM [activator, single point]	
Cc1cc(C)c2cc(C)c3nnc(SCC(=O)NCc4ccc5c(c4)OCO5)n3c2c1	inactive	
Cc1cccnc1NC(=O)CSc1ncnc2sc(C)c(C)c12	inactive	
COC(=O)c1cccc(NC(=O)CN2CCN(Cc3ccccc3)CC2)c1	inactive	
C/C(=N\S(=O)(=O)c1ccc(C)cc1)N1CCN(S(=O)(=O)c2ccccc2)C1C(C)C (centres undefined)	inactive	
Cc1ccc(Cl)cc1NC(=O)c1cc2ccccc2cc1O	inconclusive: 16.4 µM [activator, single point]	
CC1CCN(C(=O)Cn2nnc(-c3ccc(N)cc3)n2)CC1	inactive	
O=C(CSc1n[nH]c(-c2ccc(Br)cc2)n1)NC1CCCC1	inconclusive: 16.4 µM [activator, single point]	
CC(NC(=O)CSc1nc2c(c(C(F)(F)F)n1)CCc1ccccc1-2)c1ccccc1 (centres undefined)		inactive: -4.53% [at 9.22 µM]
Cc1cccc(CCN2CCN=C2N(C)C)c1	inactive	

SMILES	Potency	re-replication activation
CC1CC1C(=O)OCC(=O)Nc1ccc2[nH]c(=O)[nH]c2c1 (centres undefined)	inconclusive: 0.517 µM [activator, full curve, poor fit]	
CCn1cc(C(=O)N[C@@H](C)C(=O)NCCCn2ccnc2)c(=O)c2cc3c(cc21)OCO3	inconclusive: 1.46 µM [activator, full curve, poor fit]	
O=C(Nc1cccc(-c2nc3ccccc3s2)c1)c1cc(-n2cnnc2)ccc1Cl	inconclusive: 20.6 µM [activator, partial curve, poor fit]	
O=C(OCN1C(=O)C(=O)c2ccccc21)c1ccc(Cl)cc1	inactive	
CC(C)c1ccc(S(=O)(=O)N2CCC(C(=O)NCC3(N(C)C)CCCCC3)CC2)cc1	inconclusive: 29.1 µM [activator, single point]	
Cc1cc(/C=C2\SC(=S)N(Cc3ccco3)C2=O)c(C)n1-c1cccnc1	inactive	
Cn1cc(C(=O)N/N=C/c2cccc([N+](=O)[O-])c2)c2ccccc21	inconclusive: 0.517 µM [activator, full curve, poor fit]	
CSc1nn(-c2ccc(C(=O)OCC(=O)NC(=O)NC(C)C)cc2)c(=S)s1	inactive	
CC(NC(=O)COc1ccc(Br)cc1)C1CCCO1 (centres undefined)	inconclusive: 16.4 µM [activator, single point]	
CCCCSc1nc2c([nH]1)c(=S)n(C)c(=O)n2C	inconclusive: 29.1 µM [activator, single point]	
COCc1c(C(=O)N/N=C/c2cccc3ccccc23)nnn1-c1nonc1N	inconclusive: 18.4 µM [activator, single point]	
CCCNC(=O)c1onc(CSc2ccc(F)cc2)c1C(=O)NCCOC	inactive	
CC1=CC2=NC(=O)/C(=C\c3cc(C)n(-c4ccc(F)cc4)c3C)C(=N)N2O1	inconclusive: 20.6 µM [activator, single point]	
Cc1ccc(NC2=C(Cl)C(=O)c3ccccc3C2=O)cc1	active: 4.11 µM	
O=C(O)CC(C(=O)O)c1ccc(OCCCCOc2ccc(C(CC(=O)O)C(=O)O)cc2)cc1 (centres undefined)	inconclusive: 29.1 µM [activator, single point]	
COc1ccc(NC(=O)CCC(=O)N/N=C/c2ccc([N+](=O)[O-])s2)cc1	inactive	
CC1CCN(S(=O)(=O)c2ccc(NC(=O)CNC3CCCCC3)cc2)CC1	inconclusive: 18.4 µM [activator, single point]	
O=C(NCc1nc2ccccc2[nH]1)C1=C[C@@H](c2ccc(Br)cc2)C[C@@H](OCc2ccc(CO)cc2)O1	inconclusive: 0.731 µM [activator, full curve, poor fit]	
COc1ccc2c(c1)CC/C(=C\c1ccc(C)o1)C2=O	inactive	
CC(C)CC(=O)NC1(C(F)(F)F)C(=O)Nc2c1c(=O)n(C)c(=O)n2C (centres undefined)	inconclusive: 3.26 µM [activator, single point]	
CC(=O)c1cccc(NC(=O)CC2S/C(=N/N=C/c3cccs3)NC2=O)c1 (centres undefined)	inactive	
CCN(CC)c1ccc(N=Cc2ccc(N(CC)CC)cc2O)cc1	inconclusive: 18.4 µM [activator, partial curve, poor fit]	
Cc1cc2ncc(-c3ccccc3)nc2cc1C	inconclusive: 1.3 µM [activator, full curve, poor fit]	

Random excerpt: three compounds from above
SMILES	Potency	re-replication activation
CCCNC(=O)c1onc(CSc2ccc(F)cc2)c1C(=O)NCCOC	inactive	
CSc1nn(-c2ccc(C(=O)OCC(=O)NC(=O)NC(C)C)cc2)c(=S)s1	inactive	
CC(C)c1ccc(S(=O)(=O)N2CCC(C(=O)NCC3(N(C)C)CCCCC3)CC2)cc1	inconclusive: 29.1 µM [activator, single point]	
